Measured values: the supplement of paper PMC8166895
Structures can show the parent of a compound that is named as a salt. The list shows a part of the results. Most entries show no effect beyond the scatter of the controls.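 Differential scanning fluorimetry gave melting temperatures in a one-replicate pilot screen of a library of approved drugs plus clinical or known-target compounds. Hits increasing melting point at least 2 °C were the strongest stabilizers, while negative shifts signify destabilization.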

The molecules below were run on SARS-CoV-2 main protease (Mpro, nsp5) (assay: thermal shift ΔTm of Mpro relative to plate average Tm; higher = stronger thermal stabilization of Mpro (binding)). Details: 10 µM; protein concentration 1 µM.
With `COc1ccc(C(=O)/C=C/c2cc(OC)c(OC)c(OC)c2)cc1OC` the “thermal shift ΔTm of Mpro” value was 0.015 °C.
In the case of `Cc1cc(C)nc(SCC(=O)Nc2ncc(Cc3cccc4ccccc34)s2)n1`, the “thermal shift ΔTm of Mpro” value is reported as -0.395 °C.
`CCc1c(C(=O)C(N)=O)c2c(OCC(=O)O)cccc2n1Cc1ccccc1` was tested, and the “thermal shift ΔTm of Mpro” value was 0.275 °C.
For `CCN(CC)Cc1cc(Nc2ccnc3cc(Cl)ccc23)ccc1O` [Amodiaquine hydrochloride], the “thermal shift ΔTm of Mpro” value was 0.133 °C.
In the case of `CCN(CC)CCNC(=O)COc1ccc(OC)cc1` [Mefexamide hydrochloride], the “thermal shift ΔTm of Mpro” value is reported as 0.476 °C.
With `Clc1ccc(C(Cn2ccnc2)OCc2csc3c(Cl)cccc23)c(Cl)c1` (stereo unspecified) [Sertaconazole nitrate] the “thermal shift ΔTm of Mpro” value was -0.213 °C.
For `C=CCn1c(=O)c2cnc(Nc3ccc(N4CCN(C)CC4)cc3)nc2n1-c1cccc(C(C)(C)O)n1`, the “thermal shift ΔTm of Mpro” value was 0.56 °C.
With `CCOc1ccc(NC(=O)CC(C)O)cc1` (stereo unspecified) [Bucetin] the “thermal shift ΔTm of Mpro” value was 0.00847 °C.
For `O=C(Nc1cccc2cccnc12)c1ccc(N2C(=O)[C@@H]3[C@H](C2=O)[C@@H]2C=C[C@H]3C2)cc1` [IWR-1-endo], the “thermal shift ΔTm of Mpro” value was -0.118 °C.
With `CCCCc1nc(Cl)c(CO)n1Cc1ccc(-c2ccccc2-c2nnn[nH]2)cc1` [Losartan Potassium (DuP 753)] the “thermal shift ΔTm of Mpro” value was 0.589 °C.
With `CCCCc1nc(Cl)c(CO)n1Cc1ccc(-c2ccccc2-c2nnn[nH]2)cc1` [Losartan] the “thermal shift ΔTm of Mpro” value was 0.196 °C.
`CC1(C)S[C@@H]2[C@H](NC(=O)Cc3ccccc3)C(=O)N2[C@H]1C(=O)O` [Penicillin G Sodium] was tested, and the “thermal shift ΔTm of Mpro” value was 0.0179 °C.
In the case of `O=C1CCC(N2C(=O)c3ccccc3C2=O)C(=O)N1` (stereo unspecified) [Thalidomide], the “thermal shift ΔTm of Mpro” value is reported as 0.167 °C.
`C[C@H](CCC(=O)NCCS(=O)(=O)O)[C@H]1CC[C@H]2[C@@H]3[C@@H](O)C[C@@H]4C[C@H](O)CC[C@]4(C)[C@H]3CC[C@]12C` [Sodium Tauroursodeoxycholate (TUDC)] was tested, and the “thermal shift ΔTm of Mpro” value was -0.17 °C.
In the case of `c1cn2cc(-c3ccc4cn[nH]c4c3)nc(Nc3ccc(N4CCOCC4)cc3)c2n1`, the “thermal shift ΔTm of Mpro” value is reported as 0.0243 °C.
In the case of `CN1CCN(c2ccc(N3C[C@H](CO)OC3=O)cc2F)C=N1` [Delpazolid], the “thermal shift ΔTm of Mpro” value is reported as 0.0148 °C.
`CCCCC(C#N)(Cn1cncn1)c1ccc(Cl)cc1` (stereo unspecified) [Myclobutanil] was tested, and the “thermal shift ΔTm of Mpro” value was -0.0273 °C.
For `CC[n+]1c(-c2ccccc2)c2cc(N)ccc2c2ccc(N)cc21` [Ethidium bromide], the “thermal shift ΔTm of Mpro” value was -0.102 °C.
With `O=C1OC(CN2CCOCC2)CN1/N=C/c1ccc([N+](=O)[O-])o1` (stereo unspecified) [Furaltadone HCl] the “thermal shift ΔTm of Mpro” value was -0.107 °C.
With `O=C(CNc1ccc2ccccc2c1)N/N=C/c1cc(Br)c(O)c(Br)c1O` the “thermal shift ΔTm of Mpro” value was 0.277 °C.
For `O=C1c2c(O)cc(O)cc2O[C@H](c2cc(O)c(O)c(O)c2)[C@H]1O` [Dihydromyricetin], the “thermal shift ΔTm of Mpro” value was 0.988 °C.
`Cc1ccsc1C(=CCCN1CCC[C@@H](C(=O)O)C1)c1sccc1C` [Tiagabine] was tested, and the “thermal shift ΔTm of Mpro” value was 0.243 °C.
In the case of `Cc1ccc(-c2c(-c3nn(C)c4ncnc(N5CC[C@H](N6CCCCC6)C5)c34)cnn2C)cc1`, the “thermal shift ΔTm of Mpro” value is reported as 0.112 °C.
With `Cc1cc(C)c(CNC(=O)c2cc(-c3ccc(N4CCN(C)CC4)nc3)cc3c2c(C)cn3C(C)C)c(=O)[nH]1` the “thermal shift ΔTm of Mpro” value was -0.115 °C.
In the case of `CC(C)(C(=O)NCC(F)(F)C(F)(F)F)C(=O)N[C@@H]1C(=O)Nc2ccccc2-c2ccccc21`, the “thermal shift ΔTm of Mpro” value is reported as -0.0655 °C.
With `CN(C)CCNC(=O)c1cccn2c(=O)c3cc4ccccc4cc3nc12` the “thermal shift ΔTm of Mpro” value was 0.025 °C.
For `C[n+]1ccccc1/C=N/O` [2-Pyridinealdoxime methochloride], the “thermal shift ΔTm of Mpro” value was 0.32 °C.
`Cc1cccc(Nc2ccccc2C(=O)O)c1C` [Mefenamic Acid] was tested, and the “thermal shift ΔTm of Mpro” value was 0.232 °C.
In the case of `CCC(C)n1ncn(-c2ccc(N3CCN(c4ccc(OCC5COC(Cn6cncn6)(c6ccc(Cl)cc6Cl)O5)cc4)CC3)cc2)c1=O` (stereo unspecified) [Itraconazole], the “thermal shift ΔTm of Mpro” value is reported as -0.261 °C.
`CCOc1cc(N)c(Cl)cc1C(=O)NCC1CN(Cc2ccc(F)cc2)CCO1` (stereo unspecified) [Mosapride Citrate] was tested, and the “thermal shift ΔTm of Mpro” value was 0.0567 °C.
In the case of `COC(=O)[C@H](CCSC)NC(=O)c1ccc(NC[C@@H](N)CS)cc1-c1ccccc1`, the “thermal shift ΔTm of Mpro” value is reported as 0.0247 °C.
In the case of `Cc1c(CN2CCN(c3cccc(C(F)(F)F)c3)CC2)cc(-c2ccccc2)n1NC(=O)c1ccncc1` [Sudoterb free base], the “thermal shift ΔTm of Mpro” value is reported as -0.0874 °C.
With `COc1ccc2[nH]cc(C3=CCNCC3)c2c1` the “thermal shift ΔTm of Mpro” value was 0.22 °C.
`CC(C)Nc1nc2cc(Cl)c(Cl)cc2n1[C@H]1O[C@@H](CO)[C@H](O)[C@@H]1O` [Maribavir] was tested, and the “thermal shift ΔTm of Mpro” value was -0.00173 °C.
In the case of `C[C@H]1[C@H](OC(=O)CCC(=O)O)O[C@@H]2O[C@@]3(C)CC[C@H]4[C@H](C)CC[C@@H]1[C@@]24OO3` [Artesunate], the “thermal shift ΔTm of Mpro” value is reported as 0.0631 °C.
With `CN(C)C(=O)Oc1cccc([N+](C)(C)C)c1` [Hodostin] the “thermal shift ΔTm of Mpro” value was 0.404 °C.
For `CCOC(=O)[C@H](CCc1ccccc1)N[C@@H](C)C(=O)N1Cc2cc(OC)c(OC)cc2C[C@H]1C(=O)O` [Moexipril HCl], the “thermal shift ΔTm of Mpro” value was 0.11 °C.
For `COc1cc(/C=C/C(=O)NCCn2c(C(F)(F)F)cc3ccccc32)cc(OC)c1OC`, the “thermal shift ΔTm of Mpro” value was 0.0888 °C.
For `CN1CCC(OC(c2ccccc2)c2ccccc2)CC1` [Diphenylpyraline hydrochloride], the “thermal shift ΔTm of Mpro” value was 0.156 °C.
In the case of `C[N+](C)(C)CCO.[Cl-]` [Choline Chloride], the “thermal shift ΔTm of Mpro” value is reported as -0.0381 °C.
`CN1CCN(C2CCN(C(=O)Nc3cc(Oc4ccc(NC(=O)C5(C(=O)Nc6ccc(F)cc6)CC5)c(F)c4)ccn3)CC2)CC1` [Golvatinib (E7050)] was tested, and the “thermal shift ΔTm of Mpro” value was 0.0226 °C.
For `O=c1[nH]cnc2[nH]ncc12` [Allopurinol Sodium], the “thermal shift ΔTm of Mpro” value was 0.059 °C.
For `O=C1NC(=O)/C(=C/c2cccc(C(F)(F)F)c2)S1`, the “thermal shift ΔTm of Mpro” value was 0.174 °C.
`Cc1cc(O)c2c(c1)C(=O)c1cc(O)cc(O)c1C2=O` [Emodin] was tested, and the “thermal shift ΔTm of Mpro” value was 0.304 °C.
In the case of `Clc1ccc(Nc2nnc(Cc3ccncc3)c3ccccc23)cc1` [Vatalanib (PTK787) 2HCl], the “thermal shift ΔTm of Mpro” value is reported as 0.242 °C.
`Cn1cc(-c2ccc3nnc(Sc4ccc5ncccc5c4)n3n2)cn1` was tested, and the “thermal shift ΔTm of Mpro” value was 0.173 °C.
For `COC(=O)c1ccc2c(C(=Nc3ccc(N(C)C(=O)CN4CCN(C)CC4)cc3)c3ccccc3)c(O)[nH]c2c1` [Nintedanib (BIBF 1120)], the “thermal shift ΔTm of Mpro” value was -0.262 °C.
In the case of `CN1CCN(c2ccc(OC(F)(F)F)c(Nc3ncc4c(n3)-c3c(c(C(N)=O)nn3CCO)CC4)c2)CC1`, the “thermal shift ΔTm of Mpro” value is reported as -0.0527 °C.
For `CN(C/C=C/C#CC(C)(C)C)Cc1cccc2ccccc12` [Terbinafine HCl], the “thermal shift ΔTm of Mpro” value was 0.0336 °C.
For `CN(C/C=C/C#CC(C)(C)C)Cc1cccc2ccccc12` [Terbinafine], the “thermal shift ΔTm of Mpro” value was -0.132 °C.
For `O=c1[nH]cnc2c1ncn2[C@H]1CC[C@@H](CO)O1` [Didanosine], the “thermal shift ΔTm of Mpro” value was -0.138 °C.
For `Cn1c(O)c(C2=c3ccccc3=NC2=O)c2ccccc21` [Methylisoindigotin], the “thermal shift ΔTm of Mpro” value was 0.101 °C.
With `Nc1ccc(S(=O)(=O)NCCc2ccccc2)cc1` the “thermal shift ΔTm of Mpro” value was 0.158 °C.
`Fc1ccc([C@@H]2CCNC[C@H]2COc2ccc3c(c2)OCO3)cc1` [Paroxetine HCl] was tested, and the “thermal shift ΔTm of Mpro” value was -0.0125 °C.
In the case of `Nc1nc(O)c2ncn(CCC(CO)CO)c2n1` [Penciclovir], the “thermal shift ΔTm of Mpro” value is reported as -0.0277 °C.
For `NC(CO)C(=O)NNCc1ccc(O)c(O)c1O` (stereo unspecified) [Benserazide HCl], the “thermal shift ΔTm of Mpro” value was 0.713 °C.
`C[C@H]1COc2c(N3CCN(C)CC3)c(F)cc3c(=O)c(C(=O)O)cn1c23` [Levofloxacin Hemihydrate] was tested, and the “thermal shift ΔTm of Mpro” value was 0.207 °C.
For `C[C@H]1COc2c(N3CCN(C)CC3)c(F)cc3c(=O)c(C(=O)O)cn1c23` [Levofloxacin], the “thermal shift ΔTm of Mpro” value was 0.236 °C.
With `CCCC(=O)OCOC(=O)C1=C(C)NC(C)=C(C(=O)OC)C1c1cccc(Cl)c1Cl` (stereo unspecified) [Clevidipine Butyrate] the “thermal shift ΔTm of Mpro” value was -0.107 °C.
`CC1(C)S[C@@H]2[C@H](NC(=O)[C@H](N)c3ccccc3)C(=O)N2[C@H]1C(=O)OCOC(=O)[C@@H]1N2C(=O)C[C@H]2S(=O)(=O)C1(C)C` [Sultamicillin Tosylate] was tested, and the “thermal shift ΔTm of Mpro” value was 0.127 °C.
In the case of `COc1cc(NC(=O)CCN2CCC(OC(=O)Nc3ccccc3-c3ccccc3)CC2)c(Cl)cc1CNC[C@H](O)c1ccc(O)c2[nH]c(=O)ccc12` [Batefenterol], the “thermal shift ΔTm of Mpro” value is reported as 0.0951 °C.
For `NCC[C@H](O)C(=O)N[C@@H]1C[C@H](N)[C@@H](O[C@H]2O[C@H](CN)[C@@H](O)[C@H](O)[C@H]2O)[C@H](O)[C@H]1O[C@H]1O[C@H](CO)[C@@H](O)[C@H](N)[C@H]1O` [Amikacin Sulfate Salt], the “thermal shift ΔTm of Mpro” value was -0.0317 °C.
For `NCC[C@H](O)C(=O)N[C@@H]1C[C@H](N)[C@@H](O[C@H]2O[C@H](CN)[C@@H](O)[C@H](O)[C@H]2O)[C@H](O)[C@H]1O[C@H]1O[C@H](CO)[C@@H](O)[C@H](N)[C@H]1O` [Amikacin], the “thermal shift ΔTm of Mpro” value was 0.218 °C.
With `CCN(CC)CCOC(=O)C(O)(c1ccccc1)c1ccccc1` [Benactyzine hydrochloride] the “thermal shift ΔTm of Mpro” value was 0.251 °C.
In the case of `Cc1cc2c(F)c(Oc3ncnn4cc(OC[C@@H](C)O)c(C)c34)ccc2[nH]1`, the “thermal shift ΔTm of Mpro” value is reported as -0.0145 °C.
With `O=C(O)CSCC(=O)NC1CCSC1=O` (stereo unspecified) [Erdosteine] the “thermal shift ΔTm of Mpro” value was 0.0796 °C.
`COc1cc(/C=C/C(=O)CC(=O)/C=C/c2ccc(O)c(OC)c2)ccc1O` [Curcumin] was tested, and the “thermal shift ΔTm of Mpro” value was 0.237 °C.
For `CC(=O)OCC[N+](C)(C)C` [Acetylcholine Chloride], the “thermal shift ΔTm of Mpro” value was 0.0763 °C.
In the case of `CC1(C)CCC2=C(O1)c1ccccc1C(=O)C2=O` [Beta-Lapachone], the “thermal shift ΔTm of Mpro” value is reported as 0.0913 °C.
In the case of `C#CCCC(=O)O` [4-Pentynoic acid], the “thermal shift ΔTm of Mpro” value is reported as 0.159 °C.
With `OCCN1C[C@H](O)[C@@H](O)[C@H](O)[C@H]1CO` [Miglitol] the “thermal shift ΔTm of Mpro” value was 0.00599 °C.
For `S=C(NCc1ccc2c(c1)OCO2)N1CCN(c2ncnc3c2oc2ccccc23)CC1` [Amuvatinib (MP-470)], the “thermal shift ΔTm of Mpro” value was 0.234 °C.
With `CC(=O)Oc1cc2c(s1)CCN(C(C(=O)C1CC1)c1ccccc1F)C2` (stereo unspecified) [Prasugrel] the “thermal shift ΔTm of Mpro” value was 0.18 °C.
In the case of `Cn1cnc([N+](=O)[O-])c1Sc1ncnc2[nH]cnc12` [Azathioprine], the “thermal shift ΔTm of Mpro” value is reported as -0.0325 °C.
`CC(C)C(=O)Nc1ccc([N+](=O)[O-])c(C(F)(F)F)c1` [Flutamide] was tested, and the “thermal shift ΔTm of Mpro” value was -0.00142 °C.
`CN(C)[C@@H]1C(=O)C(C(N)=O)=C(O)[C@@]2(O)C(=O)C3=C(O)c4c(O)ccc(Cl)c4[C@@H](O)[C@H]3C[C@@H]12` [Demeclocycline HCl] was tested, and the “thermal shift ΔTm of Mpro” value was -0.0735 °C.
